Measurements reported in article PMC6762213.
No constants are given. Whether binding was seen depends on the method and setting. Binding seen in cells or lysates may run through a third protein. These calls come from enrichment with a bait or labelling near it, and not all partners need be listed. Where a sequence is shown, tags or fusion partners need not be part of it.

Chains of the proteins cited; added tags and fusions are not shown. Residues count along the entry.
UniProt P05690, residues 16-1613: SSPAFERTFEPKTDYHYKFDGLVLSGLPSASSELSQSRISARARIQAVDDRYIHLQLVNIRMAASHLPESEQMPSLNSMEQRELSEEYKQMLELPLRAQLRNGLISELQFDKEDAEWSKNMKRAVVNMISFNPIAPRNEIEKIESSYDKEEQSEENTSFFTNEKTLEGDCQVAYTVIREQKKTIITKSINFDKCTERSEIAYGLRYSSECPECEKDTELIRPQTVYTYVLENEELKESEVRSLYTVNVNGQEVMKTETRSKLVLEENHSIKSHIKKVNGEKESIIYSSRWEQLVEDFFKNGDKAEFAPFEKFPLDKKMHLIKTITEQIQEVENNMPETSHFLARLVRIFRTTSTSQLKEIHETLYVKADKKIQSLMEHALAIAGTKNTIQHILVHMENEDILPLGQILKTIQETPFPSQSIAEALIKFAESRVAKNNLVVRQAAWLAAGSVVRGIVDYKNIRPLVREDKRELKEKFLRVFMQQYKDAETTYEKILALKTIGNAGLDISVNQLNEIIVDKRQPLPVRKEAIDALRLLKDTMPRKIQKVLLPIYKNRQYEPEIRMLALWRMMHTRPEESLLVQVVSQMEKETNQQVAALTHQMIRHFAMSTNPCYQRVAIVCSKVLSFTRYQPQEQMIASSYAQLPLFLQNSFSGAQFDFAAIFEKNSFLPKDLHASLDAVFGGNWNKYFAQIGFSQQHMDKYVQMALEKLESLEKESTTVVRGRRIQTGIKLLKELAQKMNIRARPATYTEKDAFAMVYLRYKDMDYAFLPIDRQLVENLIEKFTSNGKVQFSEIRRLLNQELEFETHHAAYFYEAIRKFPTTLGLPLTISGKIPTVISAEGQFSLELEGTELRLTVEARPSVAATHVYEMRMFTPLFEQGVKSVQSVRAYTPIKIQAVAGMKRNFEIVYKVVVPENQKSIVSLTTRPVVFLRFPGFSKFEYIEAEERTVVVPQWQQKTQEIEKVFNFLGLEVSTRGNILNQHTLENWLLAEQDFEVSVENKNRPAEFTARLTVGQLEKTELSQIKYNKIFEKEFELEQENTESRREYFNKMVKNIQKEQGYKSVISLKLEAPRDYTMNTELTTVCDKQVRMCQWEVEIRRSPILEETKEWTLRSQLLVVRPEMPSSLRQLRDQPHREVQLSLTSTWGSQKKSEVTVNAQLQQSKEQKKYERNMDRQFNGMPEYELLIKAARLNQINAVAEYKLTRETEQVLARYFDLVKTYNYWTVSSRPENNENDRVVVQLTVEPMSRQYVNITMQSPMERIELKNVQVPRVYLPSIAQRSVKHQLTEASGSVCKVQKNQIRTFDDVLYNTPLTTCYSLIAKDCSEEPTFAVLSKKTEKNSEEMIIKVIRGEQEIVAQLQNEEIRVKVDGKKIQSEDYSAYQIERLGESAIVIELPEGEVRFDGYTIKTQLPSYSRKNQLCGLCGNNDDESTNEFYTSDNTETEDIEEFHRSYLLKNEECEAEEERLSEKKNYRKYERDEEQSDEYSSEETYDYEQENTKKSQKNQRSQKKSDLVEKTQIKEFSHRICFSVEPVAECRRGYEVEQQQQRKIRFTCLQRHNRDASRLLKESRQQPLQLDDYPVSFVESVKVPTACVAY
UniProt P18947, residues 16-1603: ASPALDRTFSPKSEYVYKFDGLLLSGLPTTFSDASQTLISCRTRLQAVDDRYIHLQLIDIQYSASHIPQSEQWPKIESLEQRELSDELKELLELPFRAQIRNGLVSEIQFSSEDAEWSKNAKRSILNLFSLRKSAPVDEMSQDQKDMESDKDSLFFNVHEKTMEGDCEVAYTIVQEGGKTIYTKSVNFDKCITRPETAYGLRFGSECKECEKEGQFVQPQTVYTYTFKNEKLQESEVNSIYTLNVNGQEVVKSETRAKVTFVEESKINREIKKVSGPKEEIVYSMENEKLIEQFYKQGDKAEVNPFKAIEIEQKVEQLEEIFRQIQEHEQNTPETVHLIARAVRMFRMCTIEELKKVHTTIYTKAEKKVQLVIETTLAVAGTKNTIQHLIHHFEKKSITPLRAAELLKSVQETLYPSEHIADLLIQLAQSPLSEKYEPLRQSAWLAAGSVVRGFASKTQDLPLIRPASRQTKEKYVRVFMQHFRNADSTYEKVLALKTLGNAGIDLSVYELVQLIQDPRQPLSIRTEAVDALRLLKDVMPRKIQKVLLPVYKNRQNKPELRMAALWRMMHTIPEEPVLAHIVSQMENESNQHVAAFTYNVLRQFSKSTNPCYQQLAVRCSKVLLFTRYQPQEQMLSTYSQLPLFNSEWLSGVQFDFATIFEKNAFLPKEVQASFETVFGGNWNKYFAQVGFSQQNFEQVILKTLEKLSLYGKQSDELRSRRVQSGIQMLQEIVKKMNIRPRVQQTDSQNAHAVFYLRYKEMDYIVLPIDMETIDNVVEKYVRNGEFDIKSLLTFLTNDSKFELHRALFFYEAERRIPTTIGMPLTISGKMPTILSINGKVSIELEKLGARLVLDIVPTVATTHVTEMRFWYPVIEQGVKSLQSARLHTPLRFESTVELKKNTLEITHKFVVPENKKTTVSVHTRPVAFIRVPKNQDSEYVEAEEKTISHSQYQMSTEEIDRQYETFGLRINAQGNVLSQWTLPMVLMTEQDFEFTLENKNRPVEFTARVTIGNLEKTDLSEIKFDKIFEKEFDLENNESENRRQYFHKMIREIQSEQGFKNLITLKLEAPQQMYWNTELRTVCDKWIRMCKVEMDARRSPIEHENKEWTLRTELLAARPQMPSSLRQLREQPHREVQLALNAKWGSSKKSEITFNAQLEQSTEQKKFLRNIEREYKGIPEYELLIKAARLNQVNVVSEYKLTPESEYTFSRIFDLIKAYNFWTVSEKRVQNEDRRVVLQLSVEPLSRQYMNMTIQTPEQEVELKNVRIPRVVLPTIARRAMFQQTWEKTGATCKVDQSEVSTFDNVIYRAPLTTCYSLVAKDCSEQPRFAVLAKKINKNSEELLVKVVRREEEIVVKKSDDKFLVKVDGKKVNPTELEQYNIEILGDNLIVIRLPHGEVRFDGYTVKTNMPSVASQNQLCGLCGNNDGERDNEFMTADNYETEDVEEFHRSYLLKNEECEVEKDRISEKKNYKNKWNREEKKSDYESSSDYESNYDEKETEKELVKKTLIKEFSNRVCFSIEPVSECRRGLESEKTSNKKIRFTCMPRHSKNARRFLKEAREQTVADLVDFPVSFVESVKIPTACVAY

T1: NXF-1::3xFLAG::eGFP (C. elegans) (UniProt Q9XVS7)
T1 sequence: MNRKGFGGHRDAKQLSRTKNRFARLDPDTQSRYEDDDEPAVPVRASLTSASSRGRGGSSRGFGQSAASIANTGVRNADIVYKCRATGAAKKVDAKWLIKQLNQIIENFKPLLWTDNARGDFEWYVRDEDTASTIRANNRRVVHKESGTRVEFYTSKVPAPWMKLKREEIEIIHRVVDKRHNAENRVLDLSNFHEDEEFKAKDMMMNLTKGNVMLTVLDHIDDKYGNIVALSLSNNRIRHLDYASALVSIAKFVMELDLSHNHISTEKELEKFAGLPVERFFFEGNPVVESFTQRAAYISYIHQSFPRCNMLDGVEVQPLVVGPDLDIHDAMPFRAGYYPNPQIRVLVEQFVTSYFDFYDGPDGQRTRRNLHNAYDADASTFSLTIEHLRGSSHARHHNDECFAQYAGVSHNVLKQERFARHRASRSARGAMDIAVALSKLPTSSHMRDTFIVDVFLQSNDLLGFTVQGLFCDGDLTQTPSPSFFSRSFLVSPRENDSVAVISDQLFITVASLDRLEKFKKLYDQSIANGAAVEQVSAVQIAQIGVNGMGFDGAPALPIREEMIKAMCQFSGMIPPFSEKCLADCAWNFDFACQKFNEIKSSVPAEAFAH

B1: EEF-1B.2 (protein, UniProt Q9U2H9 1-263)
chain: MSVEGLLSEVKHFNAHHLDAALGEQLFYGGKRVFSDVKPGTSSGGDHGCKGGKSELKGAIHNAKHAADKALNKEGGEDVSKLREEHSALAKKVDDLASLVAELQLQLSTLRQGQTSSVAAPAAAPAAAKEEAAGDDDFDLFGSEDEEEDEEKKKVVEERLAAYAAKKATKAGPIAKSSVILDVKPWDDETDLGEMEKLVRSIEMDGLVWGGAKLIPIGYGIKKLQIITVIEDLKVSVDDLIEKITGDFEDHVQSVDIVAFNKI
B2: FIB-1 (protein, UniProt Q22053 1-352)
chain: MGRPEFNRGGGGGGFRGGRGGDRGGSRGGFGGGGRGGYGGGDRGSFGGGDRGGFRGGRGGGDRGGFRGGRGGGDRGGFGGRGSPRGGFGGRGSPRGGRGSPRGGRGGAGGMRGGKTVVVEPHRLGGVFIVKGKEDALATKNMVVGESVYGEKRVSVDDGAGSIEYRVWNPFRSKLAASIMGGLENTHIKPGTKLLYLGAASGTTVSHCSDVVGPEGIVYAVEFSHRSGRDLLGVAKKRPNVVPIVEDARHPHKYRMLVGMVDVIFSDVAQPDQARIVALNAQNFLRNGGHAVISIKANCIDSTAEPEAVFAGEVNKLKEEKFKPLEQVTLEPYERDHAVVVAVYRPVKGKKV
B3: CGH-1 (protein, UniProt Q95YF3 1-430)
chain: MSGAEQQQIVPANNGDENWKAGLNLPAKDRRFKTADVTDTKGVEFEDFCLGRDLLMGIFEKGWEKPSPIQEASIGVALTGQDILARAKNGTGKTGAYCIPVIEKIQPALKAIQAMVIVPTRELALQTSQICVELSKHIQLKVMVTTGGTDLRDDIMRLNGTVHLVIATPGRILDLMEKGVAKMEHCKTLVLDEADKLLSQDFQGILDRLINFLPKERQVMLYSATFPNTVTSFMQKHMHKPYEINLMEELTLLGVTQYYAFVQEKQKVHCLNTLFRKLQINQSIIFCNSTQRVELLAKKITEIGYSCYYIHSKMAQNHRNRVFHDFRQGNCRNLVCSDLLTRGIDIQAVNVVINFDFPRNAETYLHRIGRSGRFGHLGVAINLITYEDRHTLRRIEQELRTRIEPIPKTVDPKLYVADQQLVDAADETTA
B4: HSP-16.1 (protein, UniProt P34696 1-145)
chain: MSLYHYFRPAQRSVFGDLMRDMAQMERQFTPVCRGSPSESSEIVNNDQKFAINLNVSQFKPEDLKINLDGHTLSIQGEQELKTEHGYSKKSFSRVILLPEDVDVGAVASNLSEDGKLSIEAPKKEAIQGRSIPIQQAPVEQKTSE
B5: PAB-1 (protein, UniProt Q9U302 1-646)
chain: MEMNVAAPAAAVAGAAAPQPGQNQTGSSYTMASLYVGDLHPDVNESILFEKFSAAGPVLSIRVCRDNATRLSLGYAYVNFQQPADAERAMDTMNFEALHGKPMRIMWSQRDPAMRRSGAGNIFIKNLDKVIDNKSIYDTFSLFGNILSCKVAIDEDGFSKGYGFVHFETEEAAQNAIQKVNGMLLAGKKVFVGKFQPRAQRNRELGETAKQFTNVYVKNFGDHYNKETLEKLFAKFGNITSCEVMTVEGKSKGFGFVAFANPEEAETAVQALHDSTIEGTDLKLHVCRAQKKSERHAELKKKHEQHKAERMQKYQGVNLYVKNLDETVDDDGLKKQFESYGNITSAKVMTDENGRSKGFGFVCFEKPEEATSAVTEMNSKMVCSKPLYVAIAQRKEDRRAQLASQYMQRLASMRMHGNVPGAAMYNPTQPGPGYYVANPMQQQRNFAGGQQMVRPGGRWGMQNQYPVQNQYMMAQGPGVYQNRMGRPQNQQGGPRGPPQQYNQVAQGGVRMQGPPRTQNPGVQQQNVPRPPQQQQQQRPAPTGPKAPPQPYQAYQQRPQGIVIGGQEPLTSAMLAAAAPQEQKQLLGERIYALIEKLYPGHKDAGKITGMMLEIDNSELIMMLQDSELFRSKVDEAASVLVSAQKQ
B6: NXT-1 (protein, UniProt Q9U757 1-137)
chain: MSMKTTQEINKEDEELCNESKKFMDVYYDVMDRKREKIGFLYTQVSNAVWNGNPINGYDSICEFMKALPSTQHDIQSLDAQRLPEGVTGDMSGGMLLNVAGAVTVDGDSKRAFTQTLLLGVEDGKYKVKSDRFRYVD
B7: RAN-2 (protein, UniProt P34342 1-960)
chain: MLPRLFLTILPVCSPSISNKTSKKFRDAHANHVFLFEMDLNNTLSFFGKQLKLDTEEEISKVIDQIRKHLNLEVLDFRGNTLSVLAGKLIAESLKTRRELKECIWSDMFTGRLKDEIPLVLDALGEALTASGCRLTTLDLSDNAFGAGLSTSLYNFLQSPALYSLENLILNNNGLGLAGKTVGKALCSLIDASKKAGTPLKLKKFVCGRNRLEVESTIALSDAFIKLGTLEEIRLPQNGIRDDGIIALAEAFRMNKKLRIIDINDNFCCPEGAIQISEVLSDLQFIEVLDLGDCVCDDPGVLAIIAELDKINRDCLKKVVLSGNNITSDVIDEIGACFNSPKMCHVKVDISVNMFGKDFDSAKARHGKGNIDFGRRGDDELLSSDEEEEQGAEDASMEEDAFNTSRETVIDRSNLHEASADEMMNDLMNKGFGCMKIEDNQQNSNGNGMVSFLDKSLKLDTAESAEPVVKVIAAASSMKALELRGNTLGIAAGNVIAKALESHPELERCLWSDLFTGRLKNEIPPILEALGKAMMTAGCKIKELDLSDNAFGPIGADALKDLLESPSSFSLEVLKLNNNGLGIGGKQIAKSLTECLRKSIAVGGENRLRLKTFIAGRNRLENPGAHALAATFKALETVEWFDVRQNGIHEEGIRALVAALKHNRNLRYLWLEDNTVLPKGAKALAKTLESWPKLEVLNLSDCLIRDAGCNYIIDHLNPQHHRHLKNVYLCGNELTPPVAKLLIQKWSKFDGLTPKPVLHIHTNSFGDEFSDVAGMAPENVNVGDEDDDLGSLDGDQEEYNSKSSDSEDADLDDDDEDDDEEAEIQIIDNGESQLKLAMDRIDRLDIDFESRFQEDTARVILQLSAPLKSCKMSEPALQRAIEVAENIVRRVESVKRNPIPATTQLVNNIVAQCAGTGVKAETDWGYGADPQVISRLFSELVARGHFKLELALLQRFFPSQ
B8: CAR-1 (protein, UniProt Q9XW17 1-340)
chain: MSNQTPYIGSKISLISKLDIRYEGILYTVDTNDSTIALAKVRSFGTEKRPTANPVAARDDVYEYIIFKASDIKDLIVCDTPKMANIGGGLPYDPAIISVSSRSAPASDGAPAASAGSSRAGTPSRNSPLGQIIQNQRPGRGGYQQNFQANRGYNNYRGGFAGGYNNQRGHNNYGVPRVNHREKLKFESDFDFEKANEKFQEVLVDNLEKLNIEDKAEPEVEEKKDAAFYDKKTSFFDNISCESLEKAEGKTGRPDWKKERETNQETFGHNAVRSLNYRRGFGGRGRGGNRGYGGYNNGYQHQHQHRGGYNGGYRQNNGGYRRGGYAPRDNQGNTAAAAEQ

Biological target: T1, NXF-1::3xFLAG::eGFP (C. elegans)
Assay: affinity purification with mass spectrometry; Anti-FLAG M2 magnetic beads on protein extracts of JCP519 worms expressing NXF-1::3xFLAG::eGFP; N2 WT extracts as negative control; three replicates; competitive elution with 3xFLAG peptide; SDS-PAGE, Coomassie Blue, bands excised, LC-MS/MS

| binding | Molecule |
| --- | --- |
| binds | ABTS-3 (C. elegans (endogenous in worm extract)) |
| binds | ANC-1 (from UniProt Q9N4M4 1-8545) |
| binds | CSQ-1 (from UniProt Q20203) |
| binds | CTL-3 (C. elegans (endogenous in worm extract)) |
| binds | HCP-1 (from UniProt O76447) |
| binds | HRP-2 (C. elegans (endogenous in worm extract)) |
| binds | IMB-3 (from UniProt Q9N5V3) |
| binds | NPP-9 (C. elegans (endogenous in worm extract)) |
| binds | RAN-1 (from UniProt O17915 1-215) |
| binds | VIG-1 (from UniProt H2KYR1) |
| binds | VIT-2 (from UniProt P05690 16-1613) |
| binds | VIT-4 (from UniProt P18947 16-1603) |

Biological target: T1, NXF-1::3xFLAG::eGFP (C. elegans)
Assay: as above
Remark: another data set of the same source

| binding | Molecule |
| --- | --- |
| binds | B1 |
| binds | B2 |
| binds | B3 |
| binds | B4 |
| binds | B5 |
| binds | B6 |
| binds | B7 |
| binds | B8 |
